Percent effect of library compounds

The chains behind the UniProt entries cited, without tags or fusion partners. Residues count along the entry.
UniProt A4I591, 1-473: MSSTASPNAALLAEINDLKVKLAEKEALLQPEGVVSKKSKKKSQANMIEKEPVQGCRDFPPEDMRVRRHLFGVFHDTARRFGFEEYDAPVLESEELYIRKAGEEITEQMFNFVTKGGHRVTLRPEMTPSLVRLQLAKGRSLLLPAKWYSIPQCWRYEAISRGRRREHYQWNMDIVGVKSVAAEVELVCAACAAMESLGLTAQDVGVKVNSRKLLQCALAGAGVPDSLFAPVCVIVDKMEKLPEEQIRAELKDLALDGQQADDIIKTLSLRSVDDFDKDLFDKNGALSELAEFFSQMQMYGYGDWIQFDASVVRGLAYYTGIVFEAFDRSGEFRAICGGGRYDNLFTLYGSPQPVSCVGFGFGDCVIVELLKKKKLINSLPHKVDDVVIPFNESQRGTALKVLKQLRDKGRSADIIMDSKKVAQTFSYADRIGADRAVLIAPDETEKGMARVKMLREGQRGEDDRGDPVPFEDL
UniProt P9WPC5, whole entry: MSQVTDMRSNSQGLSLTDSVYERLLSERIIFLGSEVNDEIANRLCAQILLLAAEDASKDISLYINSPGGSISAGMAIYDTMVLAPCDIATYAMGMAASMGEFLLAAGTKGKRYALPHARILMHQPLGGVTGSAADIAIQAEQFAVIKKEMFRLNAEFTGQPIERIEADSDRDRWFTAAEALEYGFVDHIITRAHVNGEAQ
UniProt P9WPC3, whole entry partner: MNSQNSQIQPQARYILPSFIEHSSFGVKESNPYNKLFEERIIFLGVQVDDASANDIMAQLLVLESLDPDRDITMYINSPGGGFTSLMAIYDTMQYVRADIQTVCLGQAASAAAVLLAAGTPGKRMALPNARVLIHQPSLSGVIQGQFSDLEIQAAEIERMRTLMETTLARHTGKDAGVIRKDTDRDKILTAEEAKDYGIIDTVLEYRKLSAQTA
UniProt Q4DA54, 1-478: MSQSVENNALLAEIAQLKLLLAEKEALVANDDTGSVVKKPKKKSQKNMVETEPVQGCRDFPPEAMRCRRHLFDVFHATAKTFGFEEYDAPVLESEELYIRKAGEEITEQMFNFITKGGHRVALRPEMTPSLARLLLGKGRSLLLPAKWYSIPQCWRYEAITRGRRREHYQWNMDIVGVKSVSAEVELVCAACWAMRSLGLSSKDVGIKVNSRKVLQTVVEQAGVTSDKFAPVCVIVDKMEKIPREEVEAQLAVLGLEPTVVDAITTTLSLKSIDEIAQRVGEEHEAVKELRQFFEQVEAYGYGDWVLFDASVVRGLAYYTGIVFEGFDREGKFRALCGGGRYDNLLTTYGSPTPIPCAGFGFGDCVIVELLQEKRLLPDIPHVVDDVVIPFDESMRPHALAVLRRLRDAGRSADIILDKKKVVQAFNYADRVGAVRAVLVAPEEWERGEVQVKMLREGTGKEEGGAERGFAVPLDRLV

A: 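Assay of Toxoplasma gondii numbers, read through their beta-galactosidase reporter with a colour substrate. Compounds at 10 µM. Higher reads as fewer parasites (inferred from which compounds were picked for retests). Of about 67,000 compounds tested this way, about 260 (0.38%) reached 50% or more in at least one test.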
B: 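Whole-parasite assay of Trypanosoma brucei over 72 hours; the read-out is not stated. Tested at 30 µM. Direction is inferred from retests: higher values go with stronger inhibition. Values scatter widely below zero; nearly all retest evidence comes from the higher of the two concentrations used. Size under these conditions: about 64,000 compounds, about 940 of them at 50% or above in at least one test.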
C: 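Enzyme assay of histidyl-tRNA synthetase; the read-out is not stated. Target: Histidine-tRNA ligase, Leishmania infantum (UniProt A4I591). Concentration: 30 µM. Direction is inferred from retests: higher values go with stronger inhibition. The assay is labelled LdHisRS but filed under L. infantum. Of about 69,000 compounds tested this way, about 410 (0.6%) reached 50% or more in at least one test.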
D: 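ClpP1P2, Mycobacterium tuberculosis (UniProt P9WPC5 and UniProt P9WPC3). Protease assay of ClpP1P2, read by the AMC dye that it sets free. Concentration: 50 µM. Direction is inferred from only a few compounds that gave an IC50; most scored high, so higher reads as stronger inhibition. Most other retested compounds had strongly negative values. Of about 69,000 compounds tested this way, about 10 (0.015%) reached 50% or more in at least one test.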
E: 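Histidine-tRNA ligase, Trypanosoma cruzi CL Brener (UniProt Q4DA54). Enzyme assay of histidyl-tRNA synthetase; the read-out is not stated. Concentration: 30 µM. The record gives no direction; compounds that gave an IC50 in retests scored well above the rest, so higher reads as stronger inhibition. Size under these conditions: about 69,000 compounds, about 31 of them at 50% or above in at least one test.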

Each number is a percent effect as filed. The record does not define 0% and 100%; most values in the screen are far below 50% and negative numbers occur (in some assays of this library far below -100). This is an unselected part of the compounds tested. A dash means the value is not listed here; it may have been measured.

| # | compound | A | B | C | D | E |
|---|---|---|---|---|---|---|
| 1 | `Cc1cccc(CN2C[C@@H]3OCCN(S(=O)(=O)N(C)C)[C@@H]3C2)c1` | - | - | 12.28 | -3.729 | 2.151 |
| 2 | `CN1C[C@@H](n2cnc(-c3ccccc3)c2-c2ncc[nH]2)C[C@H]1C(=O)O` | 0.437 | 2.246 | 10.99 | -6.315 | 0.5348 |
| 3 | `COC(=O)[C@@H]1CCCN1C(=O)c1cn(C/C=C/c2ccccc2)nn1` | 12.8 | -33.83 | -7.692 | -9.255 | 2.41 |
| 4 | `Cc1ccc(CNC(=O)NCc2csc(C)n2)cn1` | - | -27.13 | -30.34 | 0.4481 | 3.759 |
| 5 | `Cc1ccc(OCCN(C)C(=O)CCCC(N)=O)c(C)c1` | -42.08 | 17.12 | 8.197 | -5.888 | 7.2 |
| 6 | `[H][C@]12CC[C@]([H])(C1)[C@H](NC(=O)COc1cccc(NC(=O)CC)c1)C2` | -9.973 | -44.51 | - | - | - |
| 7 | `O=S(=O)(c1cc(F)ccc1N1CC(n2cccn2)C1)C(F)(F)F` | 29.61 | -45.84 | 13.33 | 0.2764 | 0.8696 |
| 8 | `CCCNC(=O)c1cnc2n1CCCC2` | -0.4966 | -32.07 | 1.961 | -16.63 | 4.938 |
| 9 | `CNc1cc(CNC(=O)c2ccccn2)nc(-c2ccncc2)n1` | 1.602 | 13.66 | 8.333 | 5.334 | 2.703 |
| 10 | `CCn1c(C)nnc1SCCNC(=O)CC1CCc2ccccc21` (centres unmarked) | 8.447 | -52.04 | 15.49 | -5.262 | 2.762 |
| 11 | `COCC(=O)N1CC[C@H]2C[C@@H](c3nnc(C4CC4)o3)O[C@@H]2C1` | - | - | 18.87 | 9.01 | 3.784 |
| 12 | `Cc1ccc(S(=O)(=O)Cc2nsc(N(C)C)n2)c(C)c1` | 8.403 | 4.383 | -133.3 | -3.736 | 7.143 |
| 13 | `Cc1cccc(C(C(=O)NCC2(Cn3nc(C)cc3C)CC2)N(C)C)c1` (centres unmarked) | -16.29 | -71.76 | 9.859 | 0.7606 | 5.732 |
| 14 | `CN(Cc1nccn1CC(F)(F)F)C(=O)c1cccc(N(C)C)c1` | -6.602 | 4.535 | 8.219 | -2.355 | 8 |
| 15 | `CCCNC(=O)c1ccc(S(=O)(=O)NCC2(COC)CCCC2)cc1` | -8.336 | - | 7.692 | 3.493 | 1.149 |
| 16 | `Cn1cc(C#N)c(=O)n(CC(O)c2ccccc2F)c1=O` (centres unmarked) | -13.71 | - | 16.51 | -33.05 | 2.941 |
| 17 | `Cc1ccc(C)c2c(O)cc(CN3CCC(c4nncn4C)CC3)nc12` | 9.897 | -3.04 | 12.5 | 1.817 | -6.329 |
| 18 | `Cc1nsc(NC(=O)NC2CCN(C)CC2)n1` | 19.66 | -64.15 | 10.32 | -3.239 | 7.059 |
| 19 | `COCCC(Cc1cccc(Br)c1)C(=O)NCC(N)=O` (centres unmarked) | 12.82 | -5.716 | 12.09 | -6.057 | 3.093 |
| 20 | `CSc1ccc(OCCN2CCC(n3cncn3)CC2)cc1` | 9.163 | -22.23 | 12.24 | -2.293 | 10 |
| 21 | `c1ccc(-n2cc(CN3CCCC3Cn3cccn3)nn2)cc1` (centres unmarked) | 11.62 | - | 30.77 | -53.49 | 8.571 |
| 22 | `c1c(CN2CCCC2)nc2n1CCN(C1CCOCC1)C2` | - | - | 9.434 | 2.21 | 1.111 |
| 23 | `Cc1ccc(CN2C[C@@H](C(=O)Nc3cccnc3)C[C@H]3OCC[C@H]32)o1` | - | - | 9.091 | 1.814 | -2.479 |
| 24 | `CCN1C(=O)C[C@@H]2[C@@H]1CCN2S(=O)(=O)Cc1ccc(C)cc1` | - | - | 20.97 | -2.409 | 3.509 |
| 25 | `COc1ccc(CSCC(O)CO)c(Cl)c1` (centres unmarked) | -1.162 | -8.229 | 7.071 | -0.4016 | -1.935 |
| 26 | `CC[C@H](C)Nc1nccc(-c2cnc3sccn3c2=O)n1` | 0.6048 | -17.84 | 22.86 | -1.375 | 6.78 |
| 27 | `CCN1CCN(C(C)CNC(=O)Nc2cnn(CC)c2)CC1` (centres unmarked) | 6.551 | - | 13.56 | -6.99 | 6.286 |
| 28 | `CN(Cc1cncnc1)Cc1cn2c(n1)CN(C1CCOC1)CC2.O=C(O)C(F)(F)F.O=C(O)C(F)(F)F` (centres unmarked) | 10.04 | 30.84 | - | - | - |
| 29 | `O=C(NCCc1ccccn1)NC1CCN(c2ncccn2)CC1` | -5.906 | -5.132 | 13.33 | -3.884 | -1.653 |
| 30 | `COC1CCCN(C(=O)NCC(C)(C)SC)C1` (centres unmarked) | -4.673 | -12.45 | 8.511 | -5.564 | 0.578 |
| 31 | `Cc1cc(C)n2c(CCCNS(=O)(=O)c3ccccc3)nnc2n1` | 25.65 | -52.89 | 8.696 | -20.62 | 10 |
| 32 | `CC(C)c1nnc(CNc2nc(-c3cccnc3)nc3c2CCC3)n1C` | 8.792 | -7.13 | 17.14 | -3.285 | 3.061 |
| 33 | `N#Cc1ccc(CNC2CCN(CCc3ccncc3)CC2)cc1` | -30.77 | -3.767 | 3.03 | -1.042 | 3.261 |
| 34 | `COCCn1ccc2cc(NC(C)=O)ccc21` | 1.056 | 20.32 | 22.86 | 4.412 | 4.348 |
| 35 | `CN1C(=O)C2(CCCN(C(=O)c3cccnc3O)C2)c2ccccc21` (centres unmarked) | -1.213 | -24.1 | 22.83 | 8.972 | 8.911 |
| 36 | `Cc1nc(CN2CCCC(CCc3ccc(F)cc3F)C2)c[nH]1` (centres unmarked) | 0.674 | 47.76 | 11.43 | -16.47 | 4.132 |
| 37 | `CCC(C)NC(=O)CCc1ccnc2ccccc12` (centres unmarked) | 6.772 | -67.81 | 3.333 | -7.439 | 4.902 |
| 38 | `CC[C@H]1CN(C(=O)c2cnc(N3CCN(C)CC3)nc2C)CC[C@@]1(C)O` | -1.285 | -5.668 | 1.042 | -1.56 | 0.5525 |

Once more, the final 3:

compound	A	B	C	D	E
Cc1nc(CN2CCCC(CCc3ccc(F)cc3F)C2)c[nH]1 (centres unmarked)	0.674	47.76	11.43	-16.47	4.132
CCC(C)NC(=O)CCc1ccnc2ccccc12 (centres unmarked)	6.772	-67.81	3.333	-7.439	4.902
CC[C@H]1CN(C(=O)c2cnc(N3CCN(C)CC3)nc2C)CC[C@@]1(C)O	-1.285	-5.668	1.042	-1.56	0.5525

Source: ChEMBL document CHEMBL3988442, “University of Dundee, Small-Polar-MMV Screening Library” (2021).